Out of some 360,000 compounds screened, about 7,500 (2.1%) were called active. Inconclusive results, whose numbers are uncertain, are shown with a selection of clear calls. Calls follow the shape of the dose curve; as a rule, active = well fitted inhibition curve with a large enough effect; inconclusive = small, poorly fitted or top-dose-only effect, or effect the other way; inactive = flat fitted curve, though single readings scatter. Where the call is inconclusive, the potency comes from a doubtful curve fit.
Assay: Nrf2 qHTS screen for inhibitors; also: nearly all actives have a fitted effect of over 60% in size
Conditions: A549 ARE-Fluc reporter, luciferase luminescence, 18-24 h; series mostly up to 46 µM
Outline: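 In this cell-based qHTS, ARE-driven firefly luciferase in A549 cells reports Nrf2 activity; the luminescent signal after BugLite lysis is the measured value, with a prior CellTiter-Fluor read for cell health.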
Potency is read from the fitted curve at half-maximal effect.

| Structure (SMILES) | Potency |
| --- | --- |
| O=C(/C=C/c1cccc([N+](=O)[O-])c1)NC(=S)Nc1cccc(NC(=O)c2ccccc2Cl)c1 | inconclusive: 29.1 µM [falling, single point] |
| Cc1ccc(-c2noc(C3CCCCC3)n2)cc1 | inconclusive: 0.517 µM [activator, full curve, poor fit] |
| Nc1nonc1-n1nnc(C(=O)N/N=C/c2ccc(OCc3ccccc3)cc2)c1CNc1ccccc1 | inconclusive: 29.1 µM [falling, single point] |
| CCOC(=O)c1cccc(NC(=O)c2cc3sccc3n2C)c1 | inconclusive: 29.1 µM [falling, single point] |
| COc1cc(NC(=O)CSc2nc(C3CC3)nc3ccccc23)cc(OC)c1 | inconclusive: 16.4 µM [activator, partial curve, poor fit] |
| COc1cc2cnc(-c3ccccc3)c(-c3cccc(C(F)(F)F)c3)c2cc1OC | inconclusive: 25.9 µM [falling, single point] |
| CCn1c(=O)sc2cc(NC(=O)c3cccc(OC)c3)ccc21 | inactive |
| CCOC(=O)c1ccc(N=c2ssnc2Cl)cc1 | inconclusive: 23.1 µM [falling, partial curve, poor fit] |
| C=C1C(=O)c2sccc2C(c2ccc(OC)c(OC)c2)C1COC(C)=O (configuration not stated) | inconclusive: 18.4 µM [falling, single point] |
| NC(=S)N/N=C/c1ccc2cccc(OCc3ccccc3)c2n1 | inconclusive: 18.4 µM [falling, single point] |
| CCN1CCN(c2nnc(-n3cccc3C(=O)Nc3cccc(OC)c3)s2)CC1 | inconclusive: 10.3 µM [activator, partial curve, poor fit] |
| CN(CCOc1ccc(Cl)cc1)C(=O)c1cccc(S(=O)(=O)N2CCN(c3ccc(F)cc3)CC2)c1 | active: 4.11 µM |
| COc1ccccc1N(CC(=O)NCC1CCCO1)C(=O)CNS(=O)(=O)c1ccccc1 (configuration not stated) | inconclusive: 11.6 µM [activator, partial curve, poor fit] |
| Cc1ccccc1CNC(=O)CCC(=O)N1Cc2ccccc2Oc2ncccc21 | inconclusive: 29.1 µM [falling, partial curve, poor fit] |
| CCOC(=O)c1sc(-c2ccc(OC)cc2)cc1N | inconclusive: 18.4 µM [activator, single point] |
| COc1ccc(N2CCN(C(=O)Cc3nn(C)c(=O)c4ccccc34)CC2)cc1 | inactive |
| O=C(Cn1ccn(-c2ccc(F)c(F)c2)c(=O)c1=O)c1ccc(F)cc1 | inactive |
| CC(C)c1nn2c(=O)cc(COC(=O)CNC(=O)c3ccccc3Cl)nc2s1 | inactive |
| N#CCSc1nnc(COc2cccc3ccccc23)n1-c1cccc(Cl)c1 | inconclusive: 25.9 µM [falling, single point] |
| Cc1ccc(/C=C2\SC(=S)N(CCCC(=O)N3CCOCC3)C2=O)cc1 | inconclusive: 23.1 µM [falling, partial curve] |
| Cc1ccc(Cl)cc1N1CCN(C(=O)C2CCN(c3nnc(-n4cccc4)s3)CC2)CC1 | inconclusive: 29.1 µM [falling, single point] |
| O=C(CSc1nnc(Cc2csc(Nc3cccc(Cl)c3)n2)o1)N1CCc2ccccc21 | inconclusive: 16.4 µM [falling, single point] |
| COc1ccc(-c2nn(-c3ccccc3)cc2C(=O)NC(=S)NNC(=O)c2ccncc2)cc1 | active: 20.6 µM |

As entered above:
O=C(Cn1ccn(-c2ccc(F)c(F)c2)c(=O)c1=O)c1ccc(F)cc1 – Potency: inactive
CCOC(=O)c1ccc(N=c2ssnc2Cl)cc1 – Potency: inconclusive: 23.1 µM [falling, partial curve, poor fit]

Remaining list, next part.

| Structure (SMILES) | Potency |
| --- | --- |
| COc1cccc2cc(CC(=O)c3ccc(C)c(C)c3)c(=O)oc12 | inactive |
| CSc1nc(N)c(NC(=O)c2ccc(Br)o2)c(=O)[nH]1 | inconclusive: 6.51 µM [falling, single point] |
| CC(C)(C)c1ccc(C2C(C(=O)c3ccco3)=C(O)C(=O)N2CC2CCCO2)cc1 (configuration not stated) | inconclusive: 32.6 µM [activator, single point] |
| O=C(c1ccccc1Cl)N1N=C(c2ccc(Br)cc2)CC1c1nc2ccccc2[nH]1 (configuration not stated) | inconclusive: 32.6 µM [falling, single point] |
| Cc1n[nH]c(=S)n1/N=C/c1cccc(OCc2ccccc2)c1 | inconclusive: 23.1 µM [activator, single point] |
| CCOC(=O)c1ccc(CC2S/C(=C(\C#N)C(C)=O)NC2=O)cc1 (configuration not stated) | inconclusive: 29.1 µM [activator, single point] |
| COc1ccc(NC(=O)CN(C)C(=O)c2oc3c(ccc4ccccc43)c2C)cc1 | inconclusive: 29.1 µM [falling, single point] |
| CCOC(=O)c1c(C)[nH]c(C(=O)OCC(=O)Nc2sccc2C(N)=O)c1C | active: 8.2 µM |
| CC(=O)Nc1cc2c(cc1Cl)-c1ccc(F)cc1C2O (configuration not stated) | inconclusive: 9.2 µM [activator, partial curve, poor fit] |
| C[C@H](CO)N1C[C@H](C)[C@@H](CN(C)C(=O)NC2CCCCC2)Oc2c(NC(=O)CCC(F)(F)F)cccc2C1=O | inactive |
| NC(=O)c1ccc(NC(=O)COC(=O)C2(c3cccc(F)c3)CCCC2)cc1 | inactive |
| COc1ccc(Nc2nnc(SCC(=O)/C=C3/N(C)c4ccccc4C3(C)C)s2)cc1 | active: 23.1 µM |
| O=C(c1ccco1)N1CCC(n2nnc3ccccc32)CC1 | inconclusive: 0.058 µM [falling, full curve, poor fit] |
| Cc1ccc(OCc2nc(-c3ccc(C(=O)N4CCN(c5cc(Cl)ccc5C)CC4)cc3)oc2C)cc1 | inconclusive: 0.326 µM [falling, full curve, poor fit] |
| COc1ccc(NC(=O)Cc2nc3ccccc3[nH]2)cc1 | inconclusive: 29.1 µM [falling, single point] |
| COc1ccccc1N/N=C/c1c(CO)cnc(C)c1O | inconclusive: 13 µM [falling, partial curve, poor fit] |
| CCCCSc1nc(C)cc(NC(=S)Nc2ccc(OC)cc2)n1 | inconclusive: 18.4 µM [falling, partial curve, poor fit] |
| Cc1sc2ncnc(N3CCC(C(=O)Nc4cc(Cl)ccc4Cl)CC3)c2c1C | inconclusive: 29.1 µM [falling, single point] |
| O=C(NCc1ccccc1)c1nc[nH]c1C(=O)NCc1ccccc1 | inactive |
| CCN(CC)CC#CCC(O)(c1ccccc1)C1CCCCC1 (configuration not stated) | inactive |
| Cc1ccc(S(=O)(=O)N2CCOCC2)cc1C(=O)OCC(=O)NC1CCCC(C)C1C (configuration not stated) | inactive |
| CCCc1nc2ccccc2c(C(=O)OCC(=O)NCc2ccco2)c1CC | inconclusive: 29.1 µM [falling, single point] |
| N#Cc1nc(COc2ccc(-c3ccccc3)cc2)oc1NCCCN1CCOCC1 | inconclusive: 20.6 µM [falling, partial curve] |

| Structure (SMILES) | Potency |
| --- | --- |
| COc1cccc(Nc2nc(NCCO)c3ccccc3n2)c1 | inconclusive: 23.1 µM [falling, single point] |
| O=C(CSc1nnc2ccccn12)NCc1ccc2c(c1)OCO2 | inconclusive: 7.31 µM [falling, single point] |
| Oc1ccc(/C=N/Nc2nccnc2Cl)cc1 | inconclusive: 6.51 µM [activator, partial curve] |
| CC1CN(S(=O)(=O)c2cc(C(=O)NCc3ccncc3)ccc2Cl)CC(C)O1 (configuration not stated) | inactive |
| COc1ccccc1N1CCN(C(=O)C2CCN(C(=O)c3cccc(Cl)c3)CC2)CC1 | inconclusive: 29.1 µM [falling, single point] |
| CCN(c1ccccc1)S(=O)(=O)c1ccc(OC)c(NC(=O)CNCCc2ccccc2)c1 | inconclusive: 25.9 µM [falling, single point] |
| COc1cc(-c2nc(Cc3ccccc3Cl)no2)cc(OC)c1OC | inconclusive: 20.6 µM [falling, single point] |
| NC(=O)CC(NC(=O)Cc1ccc(Cl)cc1)c1ccc(NC2CCCC2)c([N+](=O)[O-])c1 (configuration not stated) | inconclusive: 13 µM [falling, partial curve] |
| CCOc1ccc(C(O)(c2ccccc2)C(CN2CCCC2)c2ccccc2)cc1 (configuration not stated) | inactive |
| CC(C)(C)n1nc(-c2ccc(Cl)cc2)c2c(N)ncnc21 | inconclusive: 16.4 µM [falling, partial curve, poor fit] |
| O=C(Nc1ccc2nc(SCC(=O)N3CCCC3)sc2c1)c1ccc(Br)cc1 | inactive |
| CN(C)c1ccc(N=Nc2ccccc2C(=O)OCC(=O)NC2CCCC2)cc1 | inconclusive: 23.1 µM [activator, single point] |
| C#CC(C)(C)NC(=O)c1ccc(-c2ccccc2F)cc1 | inactive |
| Cc1ccc(OCC(=O)Nc2cc(-c3nc4ccccc4[nH]3)ccc2C)c(C)c1 | inactive |
| CC(C)COc1cccc(C(=O)N(C)CC(=O)Nc2cccc3ccccc23)c1 | inconclusive: 23.1 µM [falling, single point] |
| Cc1nc(-c2ccc(S(=O)(=O)NCc3ccccn3)s2)cs1 | inconclusive: 7.31 µM [falling, partial curve] |
| NNC(=O)c1ccc2[nH]c3c(c2c1)CCCC3 | inconclusive: 18.4 µM [falling, single point] |
| CC(=O)c1ccc(NC(=O)c2ccc(NC(=O)CCS(=O)(=O)c3cccs3)cc2)cc1 | inconclusive: 29.1 µM [activator, single point] |
| Cc1cccc(Cn2cc(S(=O)(=O)c3ccc(Cl)cc3)c(=O)c3cc4c(cc32)OCO4)c1 | inactive |
| Cc1ccccc1-n1c(SCC(=O)Nc2ccc3c(c2)OCO3)nnc1-c1ccccn1 | inconclusive: 10.3 µM [falling, partial curve, poor fit] |
| O=C(Nc1ccc2c(c1)OCCO2)c1cccc2nc3ccccc3nc12 | active: 2.59 µM |

An excerpt of these results, field by field.
Nc1nonc1-n1nnc(C(=O)N/N=C/c2ccc(OCc3ccccc3)cc2)c1CNc1ccccc1
  Potency: inconclusive: 29.1 µM [falling, single point]
CCOC(=O)c1cccc(NC(=O)c2cc3sccc3n2C)c1
  Potency: inconclusive: 29.1 µM [falling, single point]

From PubChem BioAssay AID504444 (National Center for Advancing Translational Sciences (NCATS), 2011)
